Assay results taken from paper doi:10.1101/2024.11.05.622030.
Like-named read-outs stand apart in the source and are kept apart here. Results are given in words; binding and its absence hold for the method and conditions named. Binding seen in cells or lysates may run through a third protein. Some binding calls cover weakened binding; strength is not graded here. For some assays here: Sequences can lack the tags named with a protein.

T1: GSDMD-mCherry (full-length GSDMD) (human) (UniProt P57764)
T1 sequence: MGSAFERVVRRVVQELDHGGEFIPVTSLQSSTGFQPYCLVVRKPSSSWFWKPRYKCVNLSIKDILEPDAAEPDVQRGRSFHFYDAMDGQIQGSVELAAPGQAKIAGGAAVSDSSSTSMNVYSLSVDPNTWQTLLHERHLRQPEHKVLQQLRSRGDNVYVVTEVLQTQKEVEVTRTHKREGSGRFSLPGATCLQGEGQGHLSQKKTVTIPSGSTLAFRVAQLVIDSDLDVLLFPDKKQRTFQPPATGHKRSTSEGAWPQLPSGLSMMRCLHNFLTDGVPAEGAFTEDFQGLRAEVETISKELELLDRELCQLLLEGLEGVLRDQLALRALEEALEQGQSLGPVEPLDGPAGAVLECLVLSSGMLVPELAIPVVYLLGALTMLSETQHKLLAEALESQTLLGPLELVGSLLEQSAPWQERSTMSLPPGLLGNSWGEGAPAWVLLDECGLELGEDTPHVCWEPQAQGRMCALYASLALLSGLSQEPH

T2: GSDMD N-terminus (residues 1-144)-mCherry (human) (UniProt P57764)
T2 sequence: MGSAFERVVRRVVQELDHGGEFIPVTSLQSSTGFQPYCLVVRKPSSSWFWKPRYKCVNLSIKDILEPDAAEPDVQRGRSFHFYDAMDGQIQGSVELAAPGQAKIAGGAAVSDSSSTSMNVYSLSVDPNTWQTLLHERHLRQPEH

T3: GSDMD N-terminus (residues 1-176)-mCherry (human) (UniProt P57764)
T3 sequence: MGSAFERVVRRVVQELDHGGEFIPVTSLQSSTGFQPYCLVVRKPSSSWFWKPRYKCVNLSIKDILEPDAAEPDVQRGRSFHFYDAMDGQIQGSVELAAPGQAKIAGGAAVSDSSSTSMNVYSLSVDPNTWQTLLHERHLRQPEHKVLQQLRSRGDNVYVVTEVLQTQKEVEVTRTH


Assays:
Test in all cases: co-IP
[1] = target: T1, GSDMD-mCherry (full-length GSDMD) (human)
[2] = target: T2, GSDMD N-terminus (residues 1-144)-mCherry (human)
[3] = target: T3, GSDMD N-terminus (residues 1-176)-mCherry (human)
[4] = target: mCherry-tagged RING1 (human) (UniProt Q06587)
[5] = target: T1, GSDMD-mCherry (full-length GSDMD) (human); remark: listed apart in the source

binding [1]	Molecule	further results
no binding	RING1 (1-88)-GFP (from UniProt Q06587 1-88) (domain or fragment)	–
binds	RING1-GFP (from UniProt Q06587 1-406)	binding [2]: binds; binding [3]: binds
no binding	RING1 (89-229)-GFP (from UniProt Q06587 89-229) (domain or fragment)	–
binds	RING1 (1-229) truncation-GFP (from UniProt Q06587 1-229) (domain or fragment)	–
–	HA-tagged GSDMD (Gasdermin D) (protein, UniProt P57764 1-484) MGSAFERVVRRVVQELDHGGEFIPVTSLQSSTGFQPYCLVVRKPSSSWFWKPRYKCVNLSIKDILEPDAAEPDVQRGRSFHFYDAMDGQIQGSVELAAPGQAKIAGGAAVSDSSSTSMNVYSLSVDPNTWQTLLHERHLRQPEHKVLQQLRSRGDNVYVVTEVLQTQKEVEVTRTHKREGSGRFSLPGATCLQGEGQGHLSQKKTVTIPSGSTLAFRVAQLVIDSDLDVLLFPDKKQRTFQPPATGHKRSTSEGAWPQLPSGLSMMRCLHNFLTDGVPAEGAFTEDFQGLRAEVETISKELELLDRELCQLLLEGLEGVLRDQLALRALEEALEQGQSLGPVEPLDGPAGAVLECLVLSSGMLVPELAIPVVYLLGALTMLSETQHKLLAEALESQTLLGPLELVGSLLEQSAPWQERSTMSLPPGLLGNSWGEGAPAWVLLDECGLELGEDTPHVCWEPQAQGRMCALYASLALLSGLSQEPH	binding [4]: binds
–	C-terminal domain of RING1 (230-406)-GFP (domain or fragment, UniProt Q06587 230-406) EDSGDRGGTLGGGTLGPPSPPGAPSPPEPGGEIELVFRPHPLLVEKGEYCQTRYVKTTGNATVDHLSKYLALRIALERRQQQEAGEPGGPGGGASDTGGPDGCGGEGGGAGGGDGPEEPALPSLEGVSEKQYTIYIAPGGGAFTTLNGSLTLELVNEKFWKVSRPLELCYAPTKDPK	binding [5]: binds weakly
